{"source": "paper doi:10.1101/2025.05.27.656518", "binders": {"B1": {"name": "ubiquitin-specific protease 8 (USP8) (enzyme, UniProt P40818 1-1118)", "chain": "MPAVASVPKELYLSSSLKDLNKKTEVKPEKISTKSYVHSALKIFKTAEECRLDRDEERAYVLYMKYVTVYNLIKKRPDFKQQQDYFHSILGPGNIKKAVEEAERLSESLKLRYEEAEVRKKLEEKDRQEEAQRLQQKRQETGREDGGTLAKGSLENVLDSKDKTQKSNGEKNEKCETKEKGAITAKELYTMMTDKNISLIIMDARRMQDYQDSCILHSLSVPEEAISPGVTASWIEAHLPDDSKDTWKKRGNVEYVVLLDWFSSAKDLQIGTTLRSLKDALFKWESKTVLRNEPLVLEGGYENWLLCYPQYTTNAKVTPPPRRQNEEVSISLDFTYPSLEESIPSKPAAQTPPASIEVDENIELISGQNERMGPLNISTPVEPVAASKSDVSPIIQPVPSIKNVPQIDRTKKPAVKLPEEHRIKSESTNHEQQSPQSGKVIPDRSTKPVVFSPTLMLTDEEKARIHAETALLMEKNKQEKELRERQQEEQKEKLRKEEQEQKAKKKQEAEENEITEKQQKAKEEMEKKESEQAKKEDKETSAKRGKEITGVKRQSKSEHETSDAKKSVEDRGKRCPTPEIQKKSTGDVPHTSVTGDSGSGKPFKIKGQPESGILRTGTFREDTDDTERNKAQREPLTRARSEEMGRIVPGLPSGWAKFLDPITGTFRYYHSPTNTVHMYPPEMAPSSAPPSTPPTHKAKPQIPAERDREPSKLKRSYSSPDITQAIQEEEKRKPTVTPTVNRENKPTCYPKAEISRLSASQIRNLNPVFGGSGPALTGLRNLGNTCYMNSILQCLCNAPHLADYFNRNCYQDDINRSNLLGHKGEVAEEFGIIMKALWTGQYRYISPKDFKITIGKINDQFAGYSQQDSQELLLFLMDGLHEDLNKADNRKRYKEENNDHLDDFKAAEHAWQKHKQLNESIIVALFQGQFKSTVQCLTCHKKSRTFEAFMYLSLPLASTSKCTLQDCLRLFSKEEKLTDNNRFYCSHCRARRDSLKKIEIWKLPPVLLVHLKRFSYDGRWKQKLQTSVDFPLENLDLSQYVIGPKNNLKKYNLFSVSNHYGGLDGGHYTAYCKNAARQRWFKFDDHEVSDISVSSVKSSAAYILFYTSLGPRVTDVAT"}}, "molecular_target": "HIV-1-derived Gag (wild type), C-terminally tagged (HIV-1)", "assay": "co-IP", "note": "No constants are given. Whether binding was seen depends on the method and setting. Binding seen in cells or lysates may run through a third protein. A result given as binding can be weak or reduced; the word gives no strength.", "data": [{"binder": "B1", "values": [{"measurement": "binding", "result": "binds"}]}]}
